US4603209A, “Fluorescent indicator dyes for calcium ions” (priority 1984, dated 1986)

System: human red cells
Test: Binding to membranes: loss of supernatant fluorescence after equilibration with red cells
Settings: red cells added to a hematocrit of 17%, 2 microM dye, 1 mM Ca^2+ or EGTA without Ca^2+
Procedure: Binding to membranes was assessed by adding 0.3 ml portions of well-washed,packed human red cells to 1.5 ml volumes of 2 microM fura-2, fura-3, or indo-1, in media containing 145 mM NaCl, 5 mM KCl, 10 mM MOPS, 1 mM Na2 HPO4, 1 mM MgCl2, and either 1 mM EGTA or 1 mM CaCl2. After several minutes equilibration, the suspensions were centrifuged and the fluorescence of the supernatant was measured with front-face geometry. The slight loss in fluorescence from its level before equilibration with red cells was taken to be an upper limit on the dye binding to membranes since dilution by residual extracellular water in the packed red cells or inner filter effects from traces of leaked hemoglobin would also have tended to depress the fluorescence.
Red cells were used as model membranes to test binding because they are easy to add and remove. Red cells added to a hematocrit of 17% in a solution of fura-2, fura-3, or indo-1, then centrifuged out, decreased the fluorescence of the supernatant by less than 5%. This small drop in fluorescence could have been just dilution by the small unavoidable amount of extracellular fluid added with the packed cells. Even if it were attributed entirely to binding, the amount of dye bound to a membrane would be less than that contained in a layer 0.2 microns thick of adjacent aqueous solution. Such negligible binding was found whether the medium contained 1 mM Ca^2+ or EGTA without Ca^2+.

SMILES	decrease of fluorescence of the supernatant (upper limit of dye binding to membranes)
Cc1ccc(N(CC(=O)O)CC(=O)O)c(OCCOc2cc3cc(-c4ncc(C(=O)O)o4)oc3cc2N(CC(=O)O)CC(=O)O)c1 [fura-2, 1-(2-(5'-carboxyoxazol-2'-yl)-6-aminobenzofuran-5-oxy)-2-(2'-amino-5'-methylphenoxy)ethane-N,N,N',N'-tetraacetic acid]	less than 5%
Cc1ccc(N(CC(=O)O)CC(=O)O)c(OCCOc2cc3cc(-c4ccc(C#N)cc4)oc3cc2N(CC(=O)O)CC(=O)O)c1 [fura-3, 1-(2-(4-cyanophenyl)-6-aminobenzofuran-5-oxy)-2-(2'-amino-5'-methylphenoxy)ethane-N,N,N',N'-tetraacetic acid]	less than 5%
Cc1ccc(N(CC(=O)O)CC(=O)O)c(OCCOc2cc(-c3cc4ccc(C(=O)O)cc4[nH]3)ccc2N(CC(=O)O)CC(=O)O)c1 [indo-1, 1-(2-amino-5-[6-carboxyindolyl-2]-phenoxy)-2-(2'-amino-5'-methylphenoxy)ethane-N,N,N',N'-tetraacetic acid]	less than 5%
